From patent publication US20010046498A1, “Chimeric prostate-homing peptides with pro-apoptotic activity” (priority 2000, published 2001)
At least one peptide structure holds a part that was inferred or is arguable (an end, a ring closure or a residue). Square brackets hold non-standard residues; d marks the D form. Peptide text beside a SMILES is read from it.

System: normal mouse prostate
Assay: Prostate-selective apoptosis (TUNEL staining)
Format: in vivo
Settings: single dose of 250 μg peptide/mouse; 24 hours
Method: The ability of the SMSIARL peptide (SEQ ID NO: 207) to deliver a pro-apoptotic peptide, D(KLAKLAK)2, to the prostate was analyzed. Briefly, SMSIARL-GG-D(KLAKLAK)2 chimeric peptide or control material was administered as a single dose of 250 μg peptide/mouse, and TUNEL staining was performed on tissues obtained 24 hours later.

CC[C@H](C)[C@H](NC(=O)[C@H](CO)NC(=O)[C@H](CCSC)NC(=O)[C@@H](N)CO)C(=O)N[C@@H](C)C(=O)N[C@@H](CCCNC(=N)N)C(=O)N[C@@H](CC(C)C)C(=O)NCC(=O)NCC(=O)N[C@H](CCCCN)C(=O)N[C@H](CC(C)C)C(=O)N[C@H](C)C(=O)N[C@H](CCCCN)C(=O)N[C@H](CC(C)C)C(=O)N[C@H](C)C(=O)N[C@H](CCCCN)C(=O)N[C@H](CCCCN)C(=O)N[C@H](CC(C)C)C(=O)N[C@H](C)C(=O)N[C@H](CCCCN)C(=O)N[C@H](CC(C)C)C(=O)N[C@H](C)C(=O)N[C@H](CCCCN)C(=O)O [SMSIARL-GG-D(KLAKLAK)2] (H-SMSIARLGG[dK][dL][dA][dK][dL][dA][dK][dK][dL][dA][dK][dL][dA][dK]-OH)
apoptosis in prostate (TUNEL): increased apoptosis in their prostates
